Reference: patent publication US9180215B2, “Positron emission tomography imaging method” (PURDUE RESEARCH FOUNDATION, priority 2007, dated 2015)
At least one compound was matched to its structure with a doubt left.

Chains of the proteins cited; added tags and fusions are not shown. Residues count along the entry.
UniProt P15328, 25-234: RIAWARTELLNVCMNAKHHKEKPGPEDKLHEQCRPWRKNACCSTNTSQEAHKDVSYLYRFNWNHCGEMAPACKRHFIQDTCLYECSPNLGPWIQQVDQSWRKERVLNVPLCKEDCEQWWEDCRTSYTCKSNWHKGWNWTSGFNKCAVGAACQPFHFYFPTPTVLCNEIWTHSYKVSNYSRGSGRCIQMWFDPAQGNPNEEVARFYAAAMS

Target: T1, folate receptors on KB cells (Homo sapiens, UniProt P15328)
T1 construct: endogenous in cells; host or cells: KB cells
Assay: Competitive binding assay using KB cells (displacement of 3H-folic acid)
Protocol: Competitive binding assay using KB cells. Relative binding affinity of the folate-fluoro-phenyl conjugate was evaluated according to the standard literature protocol by Westerhof et. al. (Mol Pharmacol, 1995, 48, 459-471) and C. P. Leamon et. al. (Bioconjugate Chem., 2006, 17 (5), 1226-1232) with minor modification.
Then cells were rinsed three times with 250 μL of PBS (phosphate saline buffer) and one time with trichloro-acetic acid. 1% sodium dodecylsulfate (250 μL) in PBS were added to each well and after 10 min cell lysates were transferred to individual vials containing 3 mL of scintillation cocktail and radioactivity was counted.

Question: With `Nc1nc2ncc(CNc3ccc(C(=O)N[C@@H](CCC(=O)NCCNC(=O)CCOCCOCCOCCOCCOCCOCCNC(=O)c4ccc(F)cc4)C(=O)O)cc3)nc2c(=O)[nH]1` [compound of FIG. 1] as the compound, how does the “relative affinity compared to folic acid” value (relative affinity of folic acid=1, >1 means stronger affinity) read?
Answer: 1.37

Question: And the “affinity for FR when compared to folic acid” value (result in words)?
Answer: equal or higher affinity
